For one molecule, binding results are on record in patent US20090142855A1.

The chains behind the UniProt entries cited, without tags or fusion partners. Residues count along the entry.
UniProt Q5VWK5, residues 24-353: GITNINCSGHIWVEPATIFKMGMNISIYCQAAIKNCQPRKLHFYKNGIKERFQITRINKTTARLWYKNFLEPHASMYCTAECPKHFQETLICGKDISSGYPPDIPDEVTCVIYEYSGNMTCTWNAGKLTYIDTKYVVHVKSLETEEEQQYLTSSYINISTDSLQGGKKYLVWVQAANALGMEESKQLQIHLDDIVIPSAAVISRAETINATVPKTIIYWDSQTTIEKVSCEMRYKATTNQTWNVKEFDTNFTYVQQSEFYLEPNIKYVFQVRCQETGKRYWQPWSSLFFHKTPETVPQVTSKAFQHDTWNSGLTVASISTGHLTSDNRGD

No constants are given. Whether binding was seen depends on the method and setting. Some results given as binding are weak or reduced against the parent protein; the word gives no strength.

For test [1], the target named is human IL23R Fc fusion protein (human) (UniProt Q5VWK5). The test can be described thus: ELISA, receptor-Fc coated on plate, titration of cytokine, detection with anti-human p40 monoclonal antibodies. A general note: In an ELISA, binding on a coated surface is turned into a signal by an enzyme label.
Test [2] shares this target. The test can be described thus: ELISA.

B1: cynomolgus IL-23 (single chain: cyno p40 - 2 bovine elastin motifs - cyno p19) (ligand)
chain: IWELKKDVYVVELDWYPDAPGEMVVLTCDTPEEDGITWTLDQSGEVLGSGKTLTIQVKEFGDAGQYTCHKGGEALSHSLLLLHKKEDGIWSTDVLKDQKEPKNKTFLRCEAKNYSGRFTCWWLTTISTDLTFSVKSSRGSSNPQGVTCGAVTLSAERVRGDNKEYEYSVECQEDSACPAAEERLPIEVMVDAIHKLKYENYTSSFFIRDIIKPDPPKNLQLKPLKNSRQVEVSWEYPDTWSTPHSYFSLTFCIQVQGKSKREKKDRIFTDKTSATVICRKNASFSVQAQDRYYSSSWSEWASVPCSVPGVGVPGVGRAVPGGSSPAWAQCQQLSQKLCTLAWSAHPLVGHMDLREEGDEETTNDVPHIQCGDGCDPQGLRDNSQFCLQRIRQGLIFYEKLLGSDIFTGEPSLLPDSPVGQLHASLLGLSQLLQPEGHHWETQQIPSPSPSQPWQRLLLRFKILRSLQAFVAVAARVFAHGAATLSP
Regarding B1, the binding result in test [1] and in test [2] was “binds” each time.
